Data: PubChem BioAssay AID212 (DTP/NCI, 2004)
The list does not hold the whole screen: it is rich in T/C values a quarter to a half above the control, in often repeated tests (any T/C) and in doses without a T/C. Further doses and runs are listed elsewhere. T/C: endpoint of the treated group in % of that of the vehicle group. Schedules are NCI's codes, read here as Q, the interval in days (D) or hours (H), X, the number of doses. Some T/C values are followed by the survivors on the day toxicity was checked, most often the fifth; where none is given, no animal had died by that day. Some entries were tested several times; their values stand side by side, smallest first. Signs of the kind (2×) count equal records among those shown. Some entries give survivors of the animals treated and no T/C: the source holds a T/C of zero for them, seemingly a mark for toxic or unscored doses. Counts of survivors are from the toxicity check (mostly the fifth day) where no day follows; animals may have died later. Where survival is the endpoint, this PubChem deposit counts one and a half times the control or more as active, and values a quarter to a half above the control carry no call in these data; other NCI protocols may use other cut-offs. Where a SMILES comes first, the peptide text is derived from it. Bridges are numbered along the chain shown (N, C = ends).

Tested on: BDF1 mice, colon carcinoma 38 sc, T/C %
Assay: NCI In Vivo Anticancer Drug Screen. Data for tumor model Colon Carcinoma 38 (subcutaneous) in B6D2F1 (BDF1) mice
Method in brief: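 Compound antitumor activity was assessed in mice carrying transplantable tumors. Survival or tumor size was recorded, and each value is the treated-group measurement divided by that of the vehicle-treated control group.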

[1] = T/C endpoint: median tumor weight (est.), dose: 800.0 mg/kg/injection, schedule: Q07DX002 (ip), vehicle: saline with Tween-80, higher T/C = larger tumour
[2] = T/C endpoint: median tumor weight (est.), dose: 25.0 mg/kg/injection, schedule: Q07DX002 (ip), vehicle: saline with Tween-80, evaluated on day 20, higher T/C = larger tumour

## CC1OC(OC2CC(O)(C(=O)CO)Cc3c(O)c4c(c(O)c32)C(=O)c2ccccc2C4=O)CC(N)C1O (centres undefined)
T/C endpoint: median survival time, dose: 3.0 mg/kg/injection, schedule: Q07DX003 (iv), vehicle: saline, higher T/C = longer survival
  T/C: 129 % of control
T/C endpoint: median survival time, dose: 4.7 mg/kg/injection, schedule: Q07DX003 (iv), vehicle: saline, higher T/C = longer survival
  survivor count: 5 of 9 on day 60
T/C endpoint: median survival time, dose: 7.3 mg/kg/injection, schedule: Q07DX003 (iv), vehicle: saline, higher T/C = longer survival
  survivor count: 1 of 10 on day 60
T/C endpoint: median tumor weight (est.), dose: 0.12 mg/kg/injection, schedule: Q07DX002 (ip), vehicle: saline, evaluated on day 20, higher T/C = larger tumour
  T/C: 147 % of control
T/C endpoint: median tumor weight (est.), dose: 2.0 mg/kg/injection, schedule: Q07DX002 (ip), vehicle: water, higher T/C = larger tumour
  survivor count: 5 of 10 on day 20
T/C endpoint: median tumor weight (est.), dose: 4.0 mg/kg/injection, schedule: Q07DX002 (ip), vehicle: water, higher T/C = larger tumour
  survivor count: 0 of 10 on day 20

## CCS/C(SC)=C(/c1ccccc1)[P+](c1ccccc1)(c1ccccc1)c1ccccc1
T/C endpoint: median tumor weight (est.), dose: 6.0 mg/kg/injection, schedule: Q07DX002 (ip), vehicle: Klucel (hydroxypropylcellulose) (HPC), higher T/C = larger tumour
  survivor count: 2 of 10 on day 20
T/C endpoint: median tumor weight (est.), dose: 12.0 mg/kg/injection, schedule: Q07DX002 (ip), vehicle: Klucel (hydroxypropylcellulose) (HPC), higher T/C = larger tumour
  survivor count: 0 of 10 on day 20
T/C endpoint: median tumor weight (est.), dose: 24.0 mg/kg/injection, schedule: Q07DX002 (ip), vehicle: Klucel (hydroxypropylcellulose) (HPC), higher T/C = larger tumour
  survivor count: 0 of 10 on day 20

## N[C@@H](Cc1ccc(N(CCCl)CCCl)cc1)C(=O)O
T/C endpoint: median tumor weight (est.), dose: 1.0 mg/kg/injection, schedule: Q07DX002 (ip), vehicle: Klucel (hydroxypropylcellulose) (HPC), evaluated on day 20, higher T/C = larger tumour
  T/C: 144 % of control
T/C endpoint: median tumor weight (est.), dose: 1.0 mg/kg/injection, schedule: Q07DX002 (ip), vehicle: saline, evaluated on day 20, higher T/C = larger tumour
  T/C: 133 % of control
T/C endpoint: median tumor weight (est.), dose: 2.5 mg/kg/injection, schedule: Q07DX002 (ip), vehicle: saline, evaluated on day 20, higher T/C = larger tumour
  T/C: 45, 56 [9 of 10 alive on day 20], 61, 71, 77, 97 (2×), 101, 101 [9 of 10 alive on day 20], 116 % of control
T/C endpoint: median tumor weight (est.), dose: 2.5 mg/kg/injection, schedule: Q07DX003 (ip), vehicle: saline, evaluated on day 20, higher T/C = larger tumour
  T/C: 25 [9 of 10 alive], 29, 61, 106 % of control
T/C endpoint: median tumor weight (est.), dose: 5.0 mg/kg/injection, schedule: Q07DX002 (ip), vehicle: saline, evaluated on day 20, higher T/C = larger tumour
  T/C: 27, 43, 46, 49, 50, 59 [9 of 10 alive], 83, 89 (2×), 105, 112 % of control
T/C endpoint: median tumor weight (est.), dose: 5.0 mg/kg/injection, schedule: Q07DX003 (ip), vehicle: saline, evaluated on day 20, higher T/C = larger tumour
  T/C: 19, 21, 22, 53, 99 % of control
T/C endpoint: median tumor weight (est.), dose: 8.0 mg/kg/injection, schedule: Q07DX002 (ip), vehicle: Klucel (hydroxypropylcellulose) (HPC), evaluated on day 20, higher T/C = larger tumour
  T/C: 146 % of control
T/C endpoint: median tumor weight (est.), dose: 10.0 mg/kg/injection, schedule: Q07DX002 (ip), vehicle: saline, evaluated on day 20, higher T/C = larger tumour
  T/C: 4, 7, 17, 25, 28, 33, 53, 87, 98 % of control
T/C endpoint: median tumor weight (est.), dose: 10.0 mg/kg/injection, schedule: Q07DX002 (ip), vehicle: saline, higher T/C = larger tumour
  survivor count: 5 of 10 on day 20
T/C endpoint: median tumor weight (est.), dose: 10.0 mg/kg/injection, schedule: Q07DX003 (ip), vehicle: saline, evaluated on day 20, higher T/C = larger tumour
  T/C: 6 [7 of 10 alive], 8, 19, 34 % of control
T/C endpoint: median tumor weight (est.), dose: 20.0 mg/kg/injection, schedule: Q07DX002 (ip), vehicle: saline, evaluated on day 20, higher T/C = larger tumour
  T/C: 3 [7 of 10 alive on day 20], 59 [9 of 10 alive], 63 % of control [8 of 10 alive on day 20]
T/C endpoint: median tumor weight (est.), dose: 20.0 mg/kg/injection, schedule: Q07DX002 (ip), vehicle: saline, higher T/C = larger tumour
  survivor count: 0 of 10 on day 20, 2 of 10 on day 20, 4 of 10, 5 of 10 on day 20
T/C endpoint: median tumor weight (est.), dose: 20.0 mg/kg/injection, schedule: Q07DX002 (ip), vehicle: suspension in saline, higher T/C = larger tumour
  survivor count: 0 of 10 on day 20, 2 of 10 on day 20, 6 of 10 on day 20
T/C endpoint: median tumor weight (est.), dose: 20.0 mg/kg/injection, schedule: Q07DX003 (ip), vehicle: saline, higher T/C = larger tumour
  survivor count: 1 of 10 and 5 of 10
T/C endpoint: median tumor weight (est.), dose: 30.0 mg/kg/injection, schedule: Q07DX002 (ip), vehicle: Klucel (hydroxypropylcellulose) (HPC), higher T/C = larger tumour
  survivor count: 0 of 10 on day 20
T/C endpoint: median tumor weight (est.), dose: 32.0 mg/kg/injection, schedule: Q07DX002 (ip), vehicle: saline, higher T/C = larger tumour
  survivor count: 0 of 10 on day 20
T/C endpoint: median tumor weight (est.), dose: 40.0 mg/kg/injection, schedule: Q07DX002 (ip), vehicle: saline, higher T/C = larger tumour
  survivor count: 0 of 10 on day 20, 3 of 10 on day 20, 3 of 9 on day 20
T/C endpoint: median tumor weight (est.), dose: 40.0 mg/kg/injection, schedule: Q07DX002 (ip), vehicle: suspension in saline, higher T/C = larger tumour
  survivor count: 0 of 10 on day 20

## CCC1=C[C@H]2CN(CCc3c([nH]c4ccccc34)[C@@](C(=O)OC)(c3cc4c(cc3OC)N(C)[C@H]3[C@@](O)(C(=O)OC)[C@H](OC(C)=O)[C@]5(CC)C=CCN6CC[C@]43[C@@H]65)C2)C1
T/C endpoint: median tumor weight (est.), dose: 1.0 mg/kg/injection, schedule: Q07DX002 (ip), vehicle: water, evaluated on day 20, higher T/C = larger tumour
  T/C: 130 % of control
T/C endpoint: median tumor weight (est.), dose: 4.0 mg/kg/injection, schedule: Q07DX002 (ip), vehicle: water, evaluated on day 20, higher T/C = larger tumour
  T/C: 125 % of control
T/C endpoint: median tumor weight (est.), dose: 16.0 mg/kg/injection, schedule: Q07DX002 (ip), vehicle: water, higher T/C = larger tumour
  survivor count: 2 of 10 on day 20

## CCCCN(CCCC)C(Cl)=Nc1ccccc1
T/C endpoint: median tumor weight (est.), dose: 25.0 mg/kg/injection, schedule: Q07DX002 (ip), vehicle: Klucel (hydroxypropylcellulose) (HPC), higher T/C = larger tumour
  survivor count: 0 of 10 on day 20
T/C endpoint: median tumor weight (est.), dose: 50.0 mg/kg/injection, schedule: Q07DX002 (ip), vehicle: Klucel (hydroxypropylcellulose) (HPC), higher T/C = larger tumour
  survivor count: 0 of 10 on day 20
T/C endpoint: median tumor weight (est.), dose: 100.0 mg/kg/injection, schedule: Q07DX002 (ip), vehicle: Klucel (hydroxypropylcellulose) (HPC), higher T/C = larger tumour
  survivor count: 0 of 10 on day 20
T/C endpoint: median tumor weight (est.), dose: 200.0 mg/kg/injection, schedule: Q07DX002 (ip), vehicle: Klucel (hydroxypropylcellulose) (HPC), evaluated on day 20, higher T/C = larger tumour
  T/C: 128 % of control [8 of 10 alive on day 20]
T/C endpoint: median tumor weight (est.), dose: 200.0 mg/kg/injection, schedule: Q07DX002 (ip), vehicle: Klucel (hydroxypropylcellulose) (HPC), higher T/C = larger tumour
  survivor count: 0 of 10 on day 20 and 2 of 10 on day 20
T/C endpoint: median tumor weight (est.), dose: 400.0 mg/kg/injection, schedule: Q07DX002 (ip), vehicle: Klucel (hydroxypropylcellulose) (HPC), higher T/C = larger tumour
  survivor count: 0 of 10 on day 20 and 2 of 10 on day 20

## NCCCC(N)(C(=O)O)C(F)F (centres undefined)
T/C endpoint: median tumor weight (est.), dose: 200.0 mg/kg/injection, schedule: Q07DX002 (ip), vehicle: distilled water + alcohol, evaluated on day 20, higher T/C = larger tumour
  T/C: 144 % of control [9 of 10 alive on day 20]
T/C endpoint: median tumor weight (est.), dose: 800.0 mg/kg/injection, schedule: Q07DX002 (ip), vehicle: distilled water + alcohol, evaluated on day 20, higher T/C = larger tumour
  T/C: 136 % of control [9 of 10 alive on day 20]

## CN=C(N)N/N=C(\C)c1ccc2oc3ccc(/C(C)=N/NC(N)=NC)cc3c2c1
T/C endpoint: median tumor weight (est.), dose: 200.0 mg/kg/injection, schedule: Q07DX002 (ip), vehicle: saline with Tween-80, higher T/C = larger tumour
  survivor count: 5 of 10 on day 20
T/C endpoint: median tumor weight (est.), dose: 400.0 mg/kg/injection, schedule: Q07DX002 (ip), vehicle: saline with Tween-80, higher T/C = larger tumour
  survivor count: 0 of 10 on day 20

## CCC(C)C1NC(=O)C(CC(C)C)NC(=O)C(C(C)C)NC(=O)C2CSSCC(NC1=O)C(=O)N2 (centres undefined) (cyclo(CCVLI); disulfide 1-2; configuration not given here)
T/C endpoint: median tumor weight (est.), dose: 512.5 micrograms/kg/injection, schedule: Q07DX002 (ip), vehicle: Klucel (hydroxypropylcellulose) (HPC), evaluated on day 20, higher T/C = larger tumour
  T/C: 139 % of control
T/C endpoint: median tumor weight (est.), dose: 1025.0 micrograms/kg/injection, schedule: Q07DX002 (ip), vehicle: Klucel (hydroxypropylcellulose) (HPC), evaluated on day 20, higher T/C = larger tumour
  T/C: 144 % of control
T/C endpoint: median tumor weight (est.), dose: 2050.0 micrograms/kg/injection, schedule: Q07DX002 (ip), vehicle: Klucel (hydroxypropylcellulose) (HPC), evaluated on day 20, higher T/C = larger tumour
  T/C: 144 % of control
T/C endpoint: median tumor weight (est.), dose: 4100.0 micrograms/kg/injection, schedule: Q07DX002 (ip), vehicle: Klucel (hydroxypropylcellulose) (HPC), evaluated on day 20, higher T/C = larger tumour
  T/C: 146 % of control

## Nc1ccc2nc3c4ccccc4c(O)n3nc2c1
[1]
  survivor count: 0 of 10 on day 20

## CC(=O)CC(c1ccccc1)c1c(O)c2ccccc2oc1=O (centres undefined)
T/C endpoint: median tumor weight (est.), dose: 0.22 mg/kg/injection, schedule: Q07DX002 (ip), vehicle: saline with Tween-80, evaluated on day 20, higher T/C = larger tumour
  T/C: 125 % of control
T/C endpoint: median tumor weight (est.), dose: 1.8 mg/kg/injection, schedule: Q07DX002 (ip), vehicle: saline with Tween-80, evaluated on day 20, higher T/C = larger tumour
  T/C: 136 % of control
T/C endpoint: median tumor weight (est.), dose: 3.6 mg/kg/injection, schedule: Q07DX002 (ip), vehicle: saline with Tween-80, evaluated on day 20, higher T/C = larger tumour
  T/C: 130 % of control

## CN(C)P(=O)(Oc1ccccc1)N(C)C
[2]
  T/C: 126 % of control
T/C endpoint: median tumor weight (est.), dose: 400.0 mg/kg/injection, schedule: Q07DX002 (ip), vehicle: saline with Tween-80, evaluated on day 20, higher T/C = larger tumour
  T/C: 147 % of control [9 of 10 alive on day 20]
[1]
  survivor count: 2 of 10 on day 20

## CC(C)(C)N1CC1CNC(=O)C(=O)NCC1CN1C(C)(C)C (centres undefined)
T/C endpoint: median tumor weight (est.), dose: 12.5 mg/kg/injection, schedule: Q07DX002 (ip), vehicle: saline with Tween-80, evaluated on day 20, higher T/C = larger tumour
  T/C: 62 [9 of 10 alive on day 20], 81, 103, 106 % of control
[2]
  T/C: 54, 64, 98, 100 % of control
T/C endpoint: median tumor weight (est.), dose: 100.0 mg/kg/injection, schedule: Q07DX002 (ip), vehicle: saline with Tween-80, higher T/C = larger tumour
  survivor count: 0 of 9 on day 20 and 4 of 10 on day 20
